This passage reports binding results from PMC6221343.

This experiment concerns the target T1, Apl2-VN (AP-1 beta-subunit Apl2 fused with the N-terminal fragment of Venus) (S. cerevisiae) (UniProt P36000).
T1 sequence: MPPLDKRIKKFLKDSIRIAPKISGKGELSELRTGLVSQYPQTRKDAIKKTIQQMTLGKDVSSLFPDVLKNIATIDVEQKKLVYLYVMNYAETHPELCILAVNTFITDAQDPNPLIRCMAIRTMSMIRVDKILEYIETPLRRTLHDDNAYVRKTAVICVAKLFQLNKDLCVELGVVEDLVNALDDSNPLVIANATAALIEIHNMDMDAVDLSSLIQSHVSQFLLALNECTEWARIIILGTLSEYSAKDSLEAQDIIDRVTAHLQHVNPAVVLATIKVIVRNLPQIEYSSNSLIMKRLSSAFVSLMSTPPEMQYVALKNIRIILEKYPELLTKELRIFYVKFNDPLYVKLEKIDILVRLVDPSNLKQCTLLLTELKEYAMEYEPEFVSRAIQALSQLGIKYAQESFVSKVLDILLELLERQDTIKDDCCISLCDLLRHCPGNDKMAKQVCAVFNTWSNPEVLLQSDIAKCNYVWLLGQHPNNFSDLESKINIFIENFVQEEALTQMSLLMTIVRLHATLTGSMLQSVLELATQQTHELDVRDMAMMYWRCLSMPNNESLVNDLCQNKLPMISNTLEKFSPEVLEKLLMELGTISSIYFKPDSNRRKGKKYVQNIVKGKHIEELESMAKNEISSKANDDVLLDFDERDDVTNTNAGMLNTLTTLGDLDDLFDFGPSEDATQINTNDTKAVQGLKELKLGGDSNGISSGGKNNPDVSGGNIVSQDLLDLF
Briefly: split reporter; BiFC: the two proteins fused with the N-terminal (VN) or C-terminal (VC) fragment of Venus at their endogenous loci; living yeast cells imaged for YFP fluorescence.

These are yes or no findings as the source states them, for the method shown. Binding seen in cells or lysates may run through a third protein. Some results given as binding are weak or reduced against the parent protein; the word gives no strength. Where a sequence is shown, tags or fusion partners need not be part of it.

B1: Apl4-VC (AP-1 gamma-subunit Apl4 fused with the C-terminal fragment of Venus) (protein, UniProt Q12028 1-832)
chain: MGSSLRSFIKDVRGAKTLADERAIITKQSAKIRTKLRDDHLPHEKRRVNIQKLLYLYILGEKTHFGQVESINLIASDDFVDKRLGYLAATLLLDESEDLLTLLTNMLNNDLHHPNKYAVSLALTSLGFLSSPELARDLYPDVENIIKNSRDPFLLKKALQCAAKLIFKDVSLLEIFNIEDITKILSSHSICTHGVLLGVTKIIQSILLIGLNRKKDEDEDEDGIDYSNDILSPLSLLLRDFFIRLENMNSKNIEPGYDVQGICDPFLQCEIIYTLKLYFQVGELLNSNNVLDYKDNFCDLLTRIATNTDSTKNSGQAILYETVKTIFSLDLNQPLRVLGINILAKFLAGKDNNTKYVSLNTLLKVVPQEPTAVQRHRKFISHCLQDTDVSIRMRALELSFAILDDSNLVELVNELMKFLAKQDEDSKDLIIYTIDHLIDTFDTRVVKDESWKLDVFFNILKLVGSFINYEKINDILIIINNTSQLSDKSEFLRKMLTISLNGTSAEISEENIGWQLVLIWCIGEYGDLVLNEGNKNGADIINESSITDYLLTLQELYTATNLKIINYILTAALKLSVRFHDAKNIEKLRQLILSYTDSTDLSLQMKSNQYEIFFNQSISVKKIILETMPKFEKITEEQDNGKALSKNLISNEPVDLLSDLLGEDSKAESKASTGDNVKPIDILEEIFGEKNDIAQVPKNANKEESINHSSAVEANSGVTLPLDANKIYDSSSLNVYASLLSANSGLAHLDLYFQAKSLISDLKTFCAVPKAQKLTLGQLYPSSTINASQICKQSLKISGSGKLKLRVKLDFHLNGSSSITNEQFDHKFDETL
On to B1, for which the binding entry is recorded as “binds”.

B2: Ldb19-VC (Ldb19/Art1 fused with the C-terminal fragment of Venus) (protein, UniProt Q12502 1-818)
chain: MAFSRLTSTHQSNHNGYSNSNKKGQSLPLTLSIDVESPPCVLYGSAMESSGAVLSGLFTVTVVDPYSSAEDKSLKNTESNVSTTSKSLKRKSTFGSALSSRLSSLSASTSNISPSTSSTSISHSPTPANLRIMAGYTKITITSVTLSLVQKIHFHKPFVPNISSMQTCMNCKTKITNMKSWEIQSNTQDLSVGSHSYPFSYLIPGSVPCSSSLGATAETQVKYELIAVVTYIDPHRNSFSSGHSTPRKEGSSSKKRLLQLAMPIAVTRSIPRGPDKNSLRVFPPTELTAAAVLPNVVYPKSTFPLEMKLDGVSSGDRRWRMRKLSWRIEETTRVKAHACPVHKHELRQLEEQVKIKESEKSKKPRSHIKRYGELGPQIRVAVNSLENMPSQRLPGEPGREQAPNSSGPASTGNVGLDDENPVNEDEEDQPGSEFIHPSDDALRQELLMQQQRARQQQLQQELKNNSSLFTEEVRIISKGEMKSGWKTDFDNNGKIELVTEIDCMGLNSGVSNPVMHASTLQTPSTGNKKPSINVACDIQDPNLGLYVSHILAVEIVVAEETLQYANGQPIRKPNSKNKKETNNNTMNVHNPDQRLAELSPIFANRNTPKVRRMGPEDITPVNSNKSNHSTNKEKASNGASNSNIVSVPTGAARVLRMQFRLTVTERSGLGISWDEEVPPIYQDVELLSPPCYELSINNGIKNKLYSTMSTPVRSEDDFVGGSDEDIGNYESQGLEPGPNVQEVTITQNKLTIPPTAHHYQPASSSQRSLTTVQSPPLESVVSVQGSVPFRGHVLTPHSTRDIRIQNFSDFLDSNRITQ
B2: the binding result is on record as “no binding”.
